Literature values in US20040096356A1, “Assay device for determining analytes in a liquid dairy product” (priority 1997, published 2004).

System: protein isolated from an antibiotic-sensitive microorganism, such as Bacillus stearothermophilus
Details: milk; according to Example 1 of EP 593 112; cited from earlier work

## CC(=O)OCC1=C(C(=O)O)N2C(=O)[C@@H](NC(=O)CSc3ccncc3)[C@H]2SC1 [Cephapirin, cephapirin]
  concentration down to which the test detects the antibiotic: 5 ppb
